Screen size: about 200,000 compounds; about 25 (0.01%) were called active. Inconclusive means that the source gave no clear call. Such entries were picked first, then a sample of the others. Calls follow the shape of the dose curve; as a rule, active = well fitted inhibition curve with a large enough effect in the signal ratio, with a control signal flat (not every such curve was filed as active); inconclusive = small, poorly fitted or top-dose-only effect, or effect the other way, or a change in a side signal; inactive = flat fitted curve, though single readings scatter; the % refers to the signal ratio. Potencies of inconclusive entries are doubtful fits and often do not repeat.
Assay: qHTS Assay for Modulators of Lamin A Splicing
Conditions: HeLa LMNA splicing GFP/RFP minigene ratio, 48 h; ratio change, negative = inhibition: at 46.1 µM (top of the series) unless noted
In short: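 Read-out is the ratio of GFP to DsRed2 object intensity, acquired by 488 nm laser-scanning cytometry on HeLa lamin A-EGFP minigene reporter cells. Compound incubation 48 hrs at 37 °C in Opti-MEM with 2% FBS; DMSO 0.5% final.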
% is scaled to controls: 0 for no effect and ±100 for the full control effect; potency is read from the fitted curve at half-maximal effect.

Compound | ratio change, negative = inhibition | Potency
O=C(NCCCN1CCOCC1)c1cc2ccccc2o1 | inactive: -1.16% | –
CCOC(=O)CSc1nnc(-c2cc(OC)c(OC)c(OC)c2)o1 | inconclusive: -6.88% [at 46 µM] | –
CNC(=O)c1c(NC(=O)c2cc(=O)c3ccccc3o2)sc2c1CCC2 | inconclusive: -1.84% [at 46 µM] | –
O=C(Nc1nc2c(s1)CCc1ccccc1-2)c1cccs1 | – | inconclusive: 35.5 µM [fluorescent, single point]
CCOC(=O)c1cnc2nc(C)nn2c1N | inactive: 14.1% [at 9.22 µM] | –
Cc1ccccc1NC(=O)C1(C)Cc2ccccc2C(=O)O1 (stereo unspecified) | inactive: -7.19% | –
COC(=O)CCN(C(=O)c1cc([N+](=O)[O-])cc([N+](=O)[O-])c1)c1ccccn1 | inconclusive: -25.3% [at 46 µM] | –
CCOC(=O)c1sc(NC(=O)CSc2nncn2C)nc1C | inactive: -4.8% [at 46 µM] | –
O=C(NC1CC1)C1CCC(=O)N1C1CCCC1 (stereo unspecified) | inconclusive: 6.6% | –
O=S(=O)(c1ccc(Cl)cc1)N1CCCC(C(F)(F)F)C1 (stereo unspecified) | inconclusive: 7.8% [at 46 µM] | –
C=CCc1cccc2ccc(=O)oc12 | inactive: -12.4% | –
O=C(CSCc1ccccc1Cl)N/N=C/c1ccco1 | inconclusive: 12.5% [at 46 µM] | –
Cc1cccc(N2C(=O)C(CC(=O)Nc3cccc(F)c3)N(CCc3ccncc3)C2=O)c1 (stereo unspecified) | inconclusive: 14.2% [at 9.22 µM] | –
Cc1ccc(C(=O)Nc2ccc(S(=O)(=O)N(Cc3ccccc3)c3ccccc3)cc2)cc1 | inactive: 12.4% [at 46 µM] | –
COc1ccc(C(=O)NC(=S)Nc2cccc(Cl)c2N2CCOCC2)cc1[N+](=O)[O-] | inactive: -2.83% | –
COc1cc(CN(C2CCCCC2C)S(=O)(=O)c2ccc(S(=O)(=O)NC3CC3)cc2)cc(OC)c1OC (stereo unspecified) | inactive: -12.3% | –
O=C(c1c[nH]c(C(=O)C(Cl)(Cl)Cl)c1)c1ccc(F)cc1Cl | – | inconclusive: 31.6 µM [rising, single point]
COc1ccc(-c2nc3n(n2)C(c2ccccc2)C(C(=O)Nc2cccnc2)=C(C)N3)cc1 (stereo unspecified) | inconclusive: -12% [at 46 µM] | –
CN1CCN(CC(=O)N2c3ccccc3C(=O)Nc3cccnc32)CC1 | inconclusive: -7.23% | –
CCOC(=O)Cn1c(=O)oc2cc(S(=O)(=O)Nc3cc(Cl)ccc3OC)ccc21 | inactive: -6.78% | –
CCc1ccccc1NC(=O)c1ccc(F)c(S(=O)(=O)N2CCN(c3ccccc3OC)CC2)c1 | inactive: -21.2% [at 46 µM] | –

Compound | ratio change, negative = inhibition | Potency
Cc1nc(NC(=O)CSc2cc(C)c3ccccc3n2)c(Cl)cc1Cl | – | inconclusive: 12.6 µM [falling, partial curve]
COC(=O)c1c(NC(=O)c2ccccc2)sc(C(N)=O)c1C | inconclusive: 7.21% [at 46 µM] | –
CCSc1nc2cc(OC)c(OC)cc2c(=O)n1CC | inactive: 0.325% | –
Cc1ccc(S(=O)(=O)N/N=C/c2c[nH]c3ccccc23)cc1 | inconclusive: -20% [at 46 µM] | –
O=C(/C=C\c1ccc2c(c1)OCO2)NC1(C(=O)Nc2ccc3c(c2)OCO3)CCCCC1 | inconclusive: -5.82% | –
O=C(c1ccc(-c2ccccc2)cc1)N1CCCC1 | inactive: 18.2% | –
CCCC(=O)n1nc(-c2ccco2)nc1SCc1ccccc1 | inactive: -11.2% | –
COc1cc(C2C(C(=O)c3ccc(C)o3)=C(O)C(=O)N2c2cc(C)on2)ccc1O (stereo unspecified) | inconclusive: 14.2% | –
COc1ccccc1-c1nnc(SCC(=O)c2ccc(C3CCCCC3)cc2)n1Cc1ccco1 | – | inconclusive: 15.8 µM [inhibitor, single point]
O=C(N/N=C/c1ccc(Br)s1)c1ccc([N+](=O)[O-])cc1 | inconclusive: -34.7% [at 9.22 µM] | –
COc1ccc2c(CC(=O)NCCN3C(=O)S/C(=C\c4cccnc4)C3=O)coc2c1 | inactive: -17.8% [at 46 µM] | –
NCc1c(O)ccc2ccccc12 | inconclusive: 1.26% [at 46 µM] | –
COc1ccc(-n2c(C)cc(C(=O)CN3C(=O)NC4(CCc5ccccc54)C3=O)c2C)cc1 (stereo unspecified) | – | inconclusive: 22.4 µM [fluorescent, partial curve]
O=C(CN1C(=O)C2(SCC(=O)N2c2ccc(F)c(F)c2)c2ccccc21)Nc1cccc(Cl)c1 (stereo unspecified) | inactive: -21.8% [at 46 µM] | –
Cc1ccc(S(=O)(=O)C2CS(=O)(=O)CC2O)cc1 (stereo unspecified) | inactive: -5.53% | –
C=CC(=O)NC(C)(C)CCN1CCOCC1 | inconclusive: -16.1% [at 46 µM] | –
Cc1ccc(C)c(S(=O)(=O)n2nc(C)c(S(=O)(=O)N3CCCCCC3)c2C)c1 | inactive: 5.82% [at 46 µM] | –
O=C(CCNS(=O)(=O)c1cccc2nsnc12)NCc1ccc(F)cc1 | – | inconclusive: 1.26 µM [activator, partial curve]
O=C(Nc1cccc(OCc2cc(=O)n3ccccc3n2)c1)Nc1cccc(C(F)(F)F)c1 | inconclusive: -7.36% [at 46 µM] | –
CC12COC3(C(=O)Nc4ccc5ccccc5c4)CC1CCC32C (stereo unspecified) | inactive: -21.7% [at 46 µM] | –
Cc1ccc2c(=O)c(C(=O)c3ccc(Cl)cc3)cn(CC(=O)Nc3ccc4c(c3)OCCO4)c2n1 | inconclusive: 10.7% [at 46 µM] | –

Some values from the list.
For Potency, COc1ccccc1-c1nnc(SCC(=O)c2ccc(C3CCCCC3)cc2)n1Cc1ccco1 is listed with inconclusive: 15.8 µM [inhibitor, single point]
For ratio change, negative = inhibition, Cc1ccc(S(=O)(=O)N/N=C/c2c[nH]c3ccccc23)cc1 is listed with inconclusive: -20% [at 46 µM]
For Potency, COc1ccc(-n2c(C)cc(C(=O)CN3C(=O)NC4(CCc5ccccc54)C3=O)c2C)cc1 (stereo unspecified) is listed with inconclusive: 22.4 µM [fluorescent, partial curve]
For ratio change, negative = inhibition, O=C(Nc1cccc(OCc2cc(=O)n3ccccc3n2)c1)Nc1cccc(C(F)(F)F)c1 is listed with inconclusive: -7.36% [at 46 µM]

Carrying on.

Compound | ratio change, negative = inhibition | Potency
O=C(O)C(CC1CCCCC1)N1CCS(=O)(=O)CC1 (stereo unspecified) | inconclusive: 6.84% [at 46 µM] | –
O=C(CCC(=O)Nc1ccc(Br)cc1)N/N=C/c1cc([N+](=O)[O-])ccc1O | – | inconclusive: 14.1 µM [inhibitor, partial curve]
O=C(Nc1nccs1)c1ccc(S(=O)(=O)N2CCOCC2)cc1 | inconclusive: -7.83% [at 46 µM] | –
CC(=O)N(CC(O)CO)c1c(I)c(C(=O)NCC(O)CO)c(I)c(C(=O)NCC(O)CO)c1I (stereo unspecified) | inconclusive: 3.95% | –
O=C1CC(c2cccc(Br)c2)c2cc3c(cc2N1)CCC3 (stereo unspecified) | inconclusive: 175% | –
CC(=O)Nc1ccc(NC(=O)COC(=O)c2c(C)nn(-c3ccccc3)c2C)cc1 | inconclusive: -0.054% | –
Cc1c(C(=O)N(C)C)sc2c1c(=O)n(-c1ccc(Cl)cc1)c(=O)n2CC(=O)C(C)(C)C | inconclusive: -14.2% [at 46 µM] | –
COc1ccc(CNC(=O)c2cc3c(C)nc4ccccc4c3o2)c(OC)c1 | inactive: -9.36% | –
O=S(=O)(Nc1cc(Sc2cccc3cccnc23)c(O)c2ccccc12)c1ccc(F)cc1 | inconclusive: 190% | –
CCNc1nc(-c2cc3ccccc3o2)cs1 | inconclusive: -4.4% | –
CCC1=C(c2ccc(C)cc2)S(=O)(=O)N=C1N1CCC(C(=O)NCc2ccc(N(C)C)cc2)CC1 | – | inconclusive: 20 µM [inhibitor, single point]
Cc1cccc(N2CCN(C(=O)c3cnc(N4CCCC4)nc3C)CC2)c1C | inconclusive: -29.8% [at 46 µM] | –
CC(Oc1ccc(Cl)cc1Cl)c1ccnc2nc(N3CCOCC3)nn12 (stereo unspecified) | inconclusive: 71% [at 46 µM] | –
CCCCOc1ccc(C(=O)NCc2nnnn2-c2ccc(C)c(C)c2)cc1 | inactive: -6.3% [at 46 µM] | –
COc1cc(NC(=O)c2nnn(CC(=O)Nc3cc(C)ccc3C)c2N)cc(OC)c1 | inactive: -2.42% [at 46 µM] | –
C/C(=N\O)C(=O)C(CN1CCCCC1)CN1CCCCC1 | inactive: 5.02% | –
Cc1ccc(NC(=O)CCN2CCN(C/C=C/c3ccccc3)CC2)cc1C | inconclusive: -9.67% | –
O=C(CNC(=O)c1ccncc1)N/N=C/c1ccc(O)cc1O | inactive: -0.196% [at 46 µM] | –
Cc1ccccc1OCC(O)Cn1c(Br)nc2c1c(=O)n(C)c(=O)n2C (stereo unspecified) | – | inconclusive: 35.5 µM [fluorescent, single point]
CCN1CCN(CCCN(Cc2ccco2)C(=S)Nc2ccc(Cl)c(C)c2)CC1 | inconclusive: -28.4% [at 46 µM] | –
Cc1ccc(S(=O)(=O)N2CCOCC2)cc1C(=O)NCc1cn2ccsc2n1 | inconclusive: 3.21% | –

Compound | ratio change, negative = inhibition | Potency
Cn1c(=O)c2sccc2n2c(CCCC(=O)NCc3ccc4c(c3)OCO4)nnc12 | inactive: 5.7% | –
Cc1ccc2nc(SC(C)C(=O)NCc3ccco3)[nH]c2c1 (stereo unspecified) | inconclusive: 1.67% | –
COc1cccc(/C=C2\SC(=S)N(c3cccnc3)C2=O)c1OC | inconclusive: 6.26% [at 46 µM] | –
Fc1ccc(-n2ncc3c(NC4CCCCCC4)ncnc32)cc1 | inconclusive: -35.9% [at 46 µM] | –
CCNC(=S)Nc1ccc(N(c2ccccc2)C(C)C)cc1 | inconclusive: -49.1% | –
CCCCOc1ccc(/C=C/C(=O)OCC(=O)NC(=O)NCC(C)C)cc1OCC | inactive: -7.23% | –
Cc1nn(-c2ccccc2)c(C)c1NC(=O)COc1ccc(F)cc1Cl | – | inconclusive: 14.1 µM [fluorescent, single point]
O=C(/C=C(\c1ccccc1)n1cncn1)c1ccccc1 | inconclusive: -2.75% | –
CSc1nnc([C@@H]2CCCN2C(=O)OC(C)(C)C)o1 | inconclusive: 17.3% [at 46 µM] | –
CCNc1ncc2nc(-c3cn(C)c4ccccc34)c(=O)n(CCC#N)c2n1 | inconclusive: -28% | –
C[C@@]1(C2CCCC2)Cc2cc(OCC(=O)O)c(Cl)c(Cl)c2C1=O | – | inconclusive: 1 µM [activator, full curve]
O=C(CCOc1ccccc1)N(Cc1cccnc1)c1nc2c(F)cc(F)cc2s1 | – | inconclusive: 35.5 µM [cytotoxic, single point]
COc1ccc(N2C(=O)CC(Sc3nc4ccccc4s3)C2=O)cc1OC (stereo unspecified) | inconclusive: 268% [at 46 µM] | –
O=C(c1ccc([N+](=O)[O-])cc1[N+](=O)[O-])N1CCCC1 | inconclusive: 17.5% [at 46 µM] | –
Cc1c(Cl)c([N+](=O)[O-])nn1Cc1ccc(C(=O)N/N=C\c2cc(Cl)ccc2O)o1 | inconclusive: -28.9% | –
CC(C)CC(=O)Nc1nnc(S(=O)(=O)N(CC(C)C)c2ccccc2)s1 | inconclusive: 8.81% [at 46 µM] | –
CC(C)CN(C(=O)CN1CCCCCC1)c1c(N)n(CC(C)C)c(=O)[nH]c1=O | inconclusive: 2.34% [at 46 µM] | –
Cc1ccc(C(=O)Nc2ccccc2C(N)=O)o1 | inactive: 8.94% | –

Single records (already shown). Order of values: ratio change, negative = inhibition | Potency
`COc1ccc(N2C(=O)CC(Sc3nc4ccccc4s3)C2=O)cc1OC` (stereo unspecified) as listed: inconclusive: 268% [at 46 µM] | –
`CCNc1ncc2nc(-c3cn(C)c4ccccc34)c(=O)n(CCC#N)c2n1` as listed: inconclusive: -28% | –

Reference: PubChem BioAssay AID1487 (National Center for Advancing Translational Sciences (NCATS), 2009)
